Test results: US20080207643A1, “Composition for Treating Hyperlipaemia” (priority 2004, published 2008)

How the values were obtained:
[1] = test system: plasma concentration of methyl dihydroxyl valeric acid (MVA); conditions: 80 mg/d; cited from earlier work
[2] = test system: hyperlipemia patients; conditions: 80 mg/d, 22 hyperlipemia patients; cited from earlier work
[3] = test system: hyperlipemia rat model; experiment: Effects on the blood lipid level in hyperlipemia model rats (high lipid containing feed); type: in vivo, Wistar rats; conditions: gavage 14 days
From the text: Each group included 10 rats. […] The measurement is the same as the experiment conducted on normal rats as described in section 5.4.

[4] = test system: normal rats; experiment: Effects on the blood lipid level in the normal rats; type: in vivo, Wistar rats; conditions: gavage 4 days
Method: Wistar rats, bred by the Medical Experimental Animal Centre of Chinese Academy of Military Medical Sciences, certificate No. […] By calculating in accordance with the principle of dosage equivalent per body surface area, the above mentioned generally used dosage for human was converted into the dosage for rats of about 50 mg/kg/day. […] By calculating in accordance with the principle of dosage equivalent per body surface area, the above mentioned generally used dosage for human was converted into the dosage for rats of about 0.85 mg/kg/day.

[5] = test system: hyperlipemia rat model; experiment: Comparison of the different formulations of acipimox in combination with atorvastatin calcium on hyperlipemia of rats; type: in vivo, Wistar rats; conditions: comparison test, gavage 14 days
From the text: The level of serum total cholesterol level was respectively measured before grouping, and then randomly grouping by following the balance principle. Each group included 10 rats.

CC(C)c1c(C(=O)Nc2ccccc2)c(-c2ccccc2)c(-c2ccc(F)cc2)n1CC[C@@H](O)C[C@@H](O)CC(=O)O [Atorvastatin calcium, calcium [R-(R′,R′)]2-(4-fluorophenyl)-βδ-dihydroxyl-5-(1-methylethyl)-3-phenyl-4-[aniline]carbonyl]-1-hydro-pyrrolyl-1-heptanoate trihydrate]
reduce the plasma concentration of methyl dihydroxyl valeric acid (MVA) [1]: 59%
decreases the plasma viscosity [2]: 10%
Low density lipoprotein-cholesterol ([3]; atorvastatin calcium 2.5 mg/kg): 8.87 ± 0.74 mmol/L
Low density lipoprotein-cholesterol ([3]; atorvastatin calcium 5 mg/kg): 8.17 ± 0.80 mmol/L
Low density lipoprotein-cholesterol ([3]; atorvastatin calcium 10 mg/kg): 8.07 ± 0.55 mmol/L
Low density lipoprotein-cholesterol ([3]; atorvastatin calcium 20 mg/kg): 7.78 ± 0.26 mmol/L
Low density lipoprotein-cholesterol ([3]; atorvastatin calcium 30 mg/kg): 7.98 ± 0.60 mmol/L
High density lipoprotein-cholesterol ([4]; atorvastatin calcium 2.5 mg/kg): 0.99 ± 0.11 mmol/L
Low density lipoprotein-cholesterol ([4]; atorvastatin calcium 2.5 mg/kg): 0.30 ± 0.14 mmol/L
High density lipoprotein-cholesterol ([4]; atorvastatin calcium 5 mg/kg): 0.96 ± 0.11 mmol/L
Low density lipoprotein-cholesterol ([4]; atorvastatin calcium 5 mg/kg): 0.25 ± 0.16 mmol/L
High density lipoprotein-cholesterol ([4]; atorvastatin calcium 10 mg/kg): 1.03 ± 0.24 mmol/L
Low density lipoprotein-cholesterol ([4]; atorvastatin calcium 10 mg/kg): 0.23 ± 0.09 mmol/L
High density lipoprotein-cholesterol ([4]; atorvastatin calcium 20 mg/kg): 1.05 ± 0.13 mmol/L
Low density lipoprotein-cholesterol ([4]; atorvastatin calcium 20 mg/kg): 0.21 ± 0.09 mmol/L
High density lipoprotein-cholesterol ([4]; atorvastatin calcium 30 mg/kg): 1.08 ± 0.18 mmol/L
Low density lipoprotein-cholesterol ([4]; atorvastatin calcium 30 mg/kg): 0.19 ± 0.12 mmol/L
Low density lipoprotein-cholesterol ([5]; atorvastatin calcium 10 mg/kg): 7.30 ± 1.88 mmol/L
Low density lipoprotein-cholesterol ([5]; atorvastatin calcium 20 mg/kg): 6.80 ± 1.66 mmol/L
